The assay can be described thus: qHTS Assay for Lipid Storage Modulators in Drosophila S3 Cells.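 As to cell number change: cells counted by Cell Tracker Red CMTPX staining in the red channel.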 The following applies: BODIPY lipid droplet fluorescence, 18-24 h; for cell number change: measured here: cell count max response, cells fed with added oleic acid. In outline:
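Drosophila S3 cells got compounds at several concentrations plus oleic acid (400 uM solution). Laser-scanning cytometry with 488 nm excitation read lipid droplets at 500-530 nm and cells at 575-640 nm. Percent activity was relative to 20 uM Triacsin C.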

The mark [1] stands for this setting: measured here: lipid fluorescence (Fed channel) AC50, cells fed with added oleic acid.
[2] abbreviates: measured here: cell number channel AC50, cells fed with added oleic acid.

The list shows a part of the results. Shown are side measurements of this screen, not its main read-out; they come without a call. Most of these compounds were active or inconclusive in the main read-out, so they are no random draw. Words in brackets tell the shape of the fitted curve; partial curves, single points and poor fits give uncertain potencies.

As to `CCCCn1c(N)c(C(=O)OCCOC)c2nc3ccccc3nc21`, the cell number change was determined as 18%. Moreover, the half-maximal activity concentration (AC50) (in general, the concentration at which the activity in the assay is half-maximal) under setting [1] was 23.1 µM [rising, single point].

On to `Cc1cccc(NP(=O)(Oc2ccccc2F)Oc2ccccc2F)c1`, for which the cell number change was -7.35%.

For `CCOP(=O)(OCC)C(O)c1ccccc1` (stereo not drawn), the cell number change is -6.32%.

As for `CN(C)P1(N(C)C)=NC(C(F)(F)F)=NC(C(F)(F)F)=N1`, the cell number change is -1.65%. Besides, the AC50 under setting [1] is 29.1 µM [falling, single point].

As for `CC(=NCC1CCCO1)c1c(O)n(-c2ccccc2)c(=O)[nH]c1=O` (stereo not drawn), the cell number change is -10.5%. Further, the AC50 under setting [1] is 5.8 µM [rising, single point].

With `CC(=O)N1CCCSC1=Nc1ccccc1`, the cell number change is -21.1%. Under setting [1], the AC50 was 29.1 µM [falling, single point].

With `COc1ccc(-n2c(O)c(C=NCc3ccc4c(c3)OCO4)c(=O)[nH]c2=O)cc1`, the cell number change was determined as 0.951%. Besides, the AC50 under setting [2] is 0.13 µM [falling, full curve, poor fit]. Also, under setting [1], the half-maximal activity concentration (AC50) is 0.0731 µM [falling, full curve, poor fit].

For `CCCC(=O)NC(Oc1ccc(OC)cc1)C(Cl)(Cl)Cl` (stereo not drawn), the cell number change turned out to be 1.05%. In addition, the AC50 under setting [1] is 0.651 µM [falling, single point].

On to `C=CCn1c(O)c(C(CC)=NCc2ccc3c(c2)OCO3)c(=O)[nH]c1=O`, for which the cell number change turned out to be 6.06%. Under setting [1], the AC50 is 7.31 µM [rising, single point].

Consider `CCC1=Nc2cc(C(=O)N3CCC4(CC3)OCCO4)ccc2Sc2ccc(Br)cc21`, for which the cell number change is -17.7%.

Take `O=c1cc(O)c2ccccc2[nH]1`: the AC50 under setting [2] was 0.206 µM [falling, full curve, poor fit].

Turning to `CCOC(=O)COc1ccc2c(c1)c(C(C)=O)c(C)n2Cc1ccccc1`, the cell number change came out at 27.5%. Under setting [1], the AC50 is 11.6 µM [rising, partial curve].

Take `C1=CC(Cc2cncs2)c2ccccc21` (stereo not drawn): the cell number change was 15.8%. Also, the AC50 under setting [1] was 29.1 µM [rising, single point].

Regarding `CCCNC(=O)N1[C@H]2CC[C@@H]1C(C(=O)OC)=C(c1ccc(F)cc1OCc1ccccc1)C2`, the cell number change is -23.6%. In addition, under setting [2], the AC50 was 4.11 µM [falling, single point]. For the same molecule, under setting [1], the AC50 is 6.51 µM [falling, single point].

Take `CCOC(=O)c1c(C)n(Cc2ccccc2)c2ccc(OCC(O)CN3C(=O)CNC3=O)cc12` (stereo not drawn): the cell number change turned out to be 0.281%. For the same molecule, the concentration at half-maximal activity (AC50) under setting [2] is 0.411 µM [rising, partial curve, poor fit]. Further, under setting [1], the concentration at half-maximal activity (AC50) is 0.326 µM [rising, full curve].

`CCN1CCN(c2ccc([N+](=O)[O-])cc2C=C2C(=O)NC(=O)NC2=O)CC1`: the cell number change came to 16.7%. For the same molecule, the AC50 under setting [1] is 0.116 µM [falling, full curve, poor fit].

Consider `CN(CCc1ccccc1)Cc1ccccc1[N+](=O)[O-]`, for which the cell number change was determined as 0.462%.

In the case of `Cc1ccc(C2(O)CC(C)N(C)CC2C)cc1` (stereo not drawn), the cell number change is -35.2%. Also, the AC50 under setting [2] is 14.6 µM [falling, partial curve]. For the same molecule, the AC50 under setting [1] is 5.8 µM [falling, single point].

`CCN1C(=O)C(=Cc2c(C)n(CC(=O)NCC3CCCO3)c3ccccc23)C(=O)N(CC)C1=S` (stereo not drawn): the cell number change came out at 15.5%. Besides, the AC50 under setting [1] is 18.4 µM [rising, single point].

In the case of `Nc1ccc2nonc2c1[N+](=O)[O-]`, the cell number change was -29.9%. Moreover, the concentration at half-maximal activity (AC50) under setting [2] is 0.164 µM [falling, full curve, poor fit]. Moreover, the AC50 under setting [1] is 0.13 µM [falling, full curve].

Regarding `Cc1ccccc1-n1c(-c2ccoc2)nc2ccccc2c1=O`, the cell number change amounted to 128%. Further, under setting [2], the AC50 was 25.9 µM [rising, partial curve].

In the case of `OCCN(CC#CC(O)(c1ccccc1)C1CCCC1)CCO` (stereo not drawn), the cell number change was -0.14%. Under setting [1], the AC50 is 0.00461 µM [falling, full curve, poor fit].

As for `CCCCCCN=C(CC)c1c(O)n(CCCC)c(=O)[nH]c1=O`, the cell number change is -43.6%. Also, the concentration at half-maximal activity (AC50) under setting [2] was 29.1 µM [falling, single point]. Also, under setting [1], the AC50 is 25.9 µM [rising, single point].

With `CC(C)=CCc1c(O)cc2c(c1O)C(=O)CC(c1ccc(O)cc1)O2` (stereo not drawn), the cell number change was -73.2%. Further, the half-maximal activity concentration (AC50) under setting [2] was 23.1 µM [falling, partial curve]. Besides, the half-maximal activity concentration (AC50) under setting [1] is 20.6 µM [falling, partial curve].

Turning to `CN(C)C(Cc1ccccc1)C(=O)c1ccc(-c2ccccc2)cc1` (stereo not drawn), the AC50 was 0.366 µM [rising, full curve] under setting [2] and 0.326 µM [rising, full curve] under setting [1].

Turning to `Cc1cccc(N2C(=O)/C(=C/N3CCN(C(=O)c4ccco4)CC3)C(=O)NC2=S)c1`, the cell number change amounted to 37.4%. For the same molecule, the AC50 under setting [2] is 20.6 µM [rising, single point]. Moreover, under setting [1], the AC50 was 29.1 µM [rising, single point].

For the molecule `C[C@H]1CCCC(=O)CCC/C=C/c2cc(O)cc(O)c2C(=O)O1`, the cell number change was -49%. Further, under setting [2], the concentration at half-maximal activity (AC50) is 29.1 µM [falling, partial curve, poor fit]. The AC50 under setting [1] was 29.1 µM [falling, single point].

Consider `COc1ccccc1/C=N/N=C(/N)N[N+](=O)[O-]`, for which the cell number change came to 86%. Also, the AC50 under setting [2] was 5.17 µM [rising, partial curve].

For the molecule `CCc1ccc(N2C(=O)NC(=O)/C(=C\C=C\c3ccco3)C2=O)cc1`, the cell number change was -38.1%. The AC50 under setting [2] was 20.6 µM [falling, single point].

With `COC(=O)C1=C(c2ccc(C(C)=O)cc2)C[C@@H]2CC[C@H]1N2C(=O)NC1Cc2ccccc2C1`, the cell number change amounted to 3.62%. Moreover, the AC50 under setting [1] was 0.00651 µM [rising, full curve, poor fit].

Regarding `CCOC(=O)c1cn2nc(OP(=S)(OCC)OCC)cc2nc1C`, the cell number change was -5.7%. Under setting [1], the AC50 was 29.1 µM [rising, single point].

For `Cn1c(=O)c2nncnc2n(C)c1=O`, the cell number change stood at 3.22%. In addition, the AC50 under setting [2] is 0.0517 µM [rising, full curve, poor fit].

As to `Cc1cc(O)c2c(c1)OC(C)(C)C1=C2CC(C)CC1` (stereo not drawn), the cell number change is -38.4%. Further, the AC50 under setting [2] was 20.6 µM [falling, single point]. The AC50 under setting [1] is 29.1 µM [falling, single point].

As to `CN1CCN(CC(=O)Nc2ccc([N+](=O)[O-])cc2C(=O)c2ccccc2)CC1`, the cell number change was 80.6%.

As for `COc1ccc(-n2c(O)c(C(C)=Nc3ccc4c(c3)CCC4)c(=O)[nH]c2=O)cc1`, the cell number change was -43.9%. Besides, the AC50 under setting [2] is 1.84 µM [falling, partial curve]. Besides, the AC50 under setting [1] is 6.51 µM [falling, full curve].

Consider `O=C(C(=O)N1CCOCC1)c1cn(CCCOc2ccccc2)c2ccccc12`, for which the cell number change is -11.8%. Besides, the AC50 under setting [2] is 0.116 µM [falling, full curve, poor fit]. Also, the AC50 under setting [1] is 7.31 µM [falling, partial curve, poor fit].

The values are drawn from PubChem BioAssay AID2685 (National Center for Advancing Translational Sciences (NCATS), 2010).
